The source of these data is PMC10009235.

Data set [1] relates to VEZF1. The experiment in a line: EMSA with antibody interference. The following applies: VEZF1 antibody reduces the shift; LightShift Chemiluminescent EMSA kit (Pierce) with HEK-293T nuclear extract; buffer composition, pH and temperature not …; protein in an extract. On the technique in general: A gel shift assay detects complexes by their altered migration in electrophoresis.

Data set [2] has as its system VEZF1. The experiment in a line: competition with a labelled probe. The conditions noted are these: unlabeled 2-, 4-, LightShift Chemiluminescent EMSA kit (Pierce) with HEK-293T nuclear extract, buffer composition, pH and temperature not stated, protein in an extract.

For at least one entry, the source does not settle the construct or the ends of the probe. Where cells or extracts were used, other partners may take part.

With “CCCTCGCCGGCCCCCGCCCCTCCG (double strand) [Flt1 Wt-L-Oligo3]”, the binding result in the data set with VEZF1 [1] was “binds”; in the data set on VEZF1 [2] (8-fold excess vs labeled Oligo3, dose-dependent decrease) it was “binds”.

Consider “GCGGATGAGGGGTGGGGGACCCCTTGACGT (double strand) [Flt1 Wt-L-Oligo4]”, for which the binding result is reported as “binds” in the data set on VEZF1 [1] and “binds” in the data set on VEZF1 [2] (8-fold excess vs labeled Oligo4, dose-dependent decrease).
